# Primary screen of a compound library

Amino acid sequences for entries named in this document (tags omitted). Residues count along the entry.
UniProt Q4DA54, 1-478: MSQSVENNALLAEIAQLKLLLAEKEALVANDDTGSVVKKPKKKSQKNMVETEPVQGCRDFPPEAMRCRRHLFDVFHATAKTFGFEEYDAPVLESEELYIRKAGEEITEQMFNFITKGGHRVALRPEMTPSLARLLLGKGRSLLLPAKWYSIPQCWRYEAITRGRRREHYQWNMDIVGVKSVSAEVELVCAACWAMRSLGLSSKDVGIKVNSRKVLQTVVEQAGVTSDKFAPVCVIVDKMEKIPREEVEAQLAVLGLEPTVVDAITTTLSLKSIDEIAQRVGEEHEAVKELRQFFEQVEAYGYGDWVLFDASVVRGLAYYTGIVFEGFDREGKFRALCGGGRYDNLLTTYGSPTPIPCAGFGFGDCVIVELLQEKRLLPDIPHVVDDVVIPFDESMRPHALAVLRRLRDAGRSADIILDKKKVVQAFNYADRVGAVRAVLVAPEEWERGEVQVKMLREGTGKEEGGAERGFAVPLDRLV
UniProt A4I591, 1-473: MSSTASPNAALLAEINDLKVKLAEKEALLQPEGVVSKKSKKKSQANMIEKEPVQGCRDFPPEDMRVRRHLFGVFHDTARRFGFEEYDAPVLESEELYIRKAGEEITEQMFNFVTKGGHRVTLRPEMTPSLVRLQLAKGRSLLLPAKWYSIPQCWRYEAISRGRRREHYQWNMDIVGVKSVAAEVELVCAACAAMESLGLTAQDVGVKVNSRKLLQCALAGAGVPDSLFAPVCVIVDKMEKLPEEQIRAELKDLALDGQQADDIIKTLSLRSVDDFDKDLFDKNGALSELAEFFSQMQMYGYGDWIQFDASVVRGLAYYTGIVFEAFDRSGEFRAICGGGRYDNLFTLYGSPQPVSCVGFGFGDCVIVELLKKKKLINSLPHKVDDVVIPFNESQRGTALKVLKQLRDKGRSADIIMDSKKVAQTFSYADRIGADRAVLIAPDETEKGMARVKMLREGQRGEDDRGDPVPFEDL

Source: ChEMBL document CHEMBL3988442, “University of Dundee, Small-Polar-MMV Screening Library” (2021).

Values are the deposited “Percent Effect”, in %.
The controls that fix the scale are not given in the record; negative values are as filed.
This is an unselected part of the compounds tested.

T. brucei: 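Whole-parasite assay of Trypanosoma brucei over 72 hours; the read-out is not stated. Concentration: 30 µM. The record gives no direction; compounds that gave an IC50 in retests scored well above the rest, so higher reads as stronger inhibition. Values scatter widely below zero; nearly all retest evidence comes from the higher of the two concentrations used. Of about 64,000 compounds tested this way, about 940 (1.5%) reached 50% or more in at least one test.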
TcHisRS: 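Histidine-tRNA ligase, Trypanosoma cruzi CL Brener (UniProt Q4DA54). Enzyme assay of histidyl-tRNA synthetase; the read-out is not stated. Compounds at 30 µM. The record gives no direction; compounds that gave an IC50 in retests scored well above the rest, so higher reads as stronger inhibition. About 69,000 compounds were tested under these conditions; 0.045% (about 31) showed 50% or more at least once.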
LiHisRS: 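Histidine-tRNA ligase, Leishmania infantum (UniProt A4I591). Enzyme assay of histidyl-tRNA synthetase; the read-out is not stated. Tested at 30 µM. Higher reads as stronger inhibition (inferred: compounds with an IC50 in retests scored well above the rest). The assay is labelled LdHisRS but filed under L. infantum. About 69,000 compounds were tested under these conditions; 0.6% (about 410) showed 50% or more at least once.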

compound: [H][C@]12CC[C@]([H])(CN(Cc3ccc(OC)cc3)C1)N(S(C)(=O)=O)C2
T. brucei: -28.01%

compound: O=C(CCNc1ccc(Cl)cn1)NCc1ccncc1
T. brucei: -665.9%
TcHisRS: 11.11%
LiHisRS: 8.219%

compound: CCC(CN1CCCC1)n1cncc1-c1cnn(-c2ccccc2)c1 (stereo unspecified)
TcHisRS: 7.91%
LiHisRS: 18.18%

compound: Cc1cc(CNC(C)Cn2cncn2)ccc1Br (stereo unspecified)
T. brucei: -30.42%
TcHisRS: 4.294%
LiHisRS: 0%

compound: O=C(CCC(=O)N1CCC(c2noc3cc(F)ccc23)CC1)NC1CC1
T. brucei: -45.54%
TcHisRS: 7%
LiHisRS: 8.696%

compound: CC(C)NC(=O)C1(CC2CC(c3ccc(F)cc3)=NO2)CCNCC1.O=C(O)CC(O)(CC(=O)O)C(=O)O (stereo unspecified)
T. brucei: -5.407%

compound: Cc1cc(C)c2ncc(C#N)c(NC3CCN(CC(N)=O)CC3)c2c1
T. brucei: -21.95%
TcHisRS: 10.31%
LiHisRS: 21.84%

compound: Cc1[nH]ncc1CCCNC(=O)Nc1ccccc1
T. brucei: -84.29%
TcHisRS: 7.882%
LiHisRS: -4.11%

compound: COc1cccc(-n2ccc3nc(N4CCCC4)ncc3c2=O)c1
T. brucei: -41.16%
TcHisRS: 6.818%
LiHisRS: 5%

compound: Cc1csc(CN2CC[C@H]3C[C@@H](c4nnc(C)[nH]4)O[C@@H]3C2)n1
TcHisRS: -8.772%
LiHisRS: 12.9%

compound: O=C(Cc1ccccn1)N1CCn2cc(Cn3cncn3)nc2C1
T. brucei: -102.9%
TcHisRS: 7.65%
LiHisRS: 17.54%

compound: Cc1ccccc1C(C(=O)NCCSC(F)(F)F)N(C)C (stereo unspecified)
T. brucei: 3.251%
TcHisRS: 7.216%
LiHisRS: 16.48%

compound: O=S1(=O)[C@@H](c2ccccc2)[C@H](CO)CN1C1CC1
T. brucei: 20.48%
TcHisRS: 3.468%
LiHisRS: 12.37%

compound: Cn1cc(CCNC(=O)CCc2ccc3c(c2)OCO3)cn1
T. brucei: -15.18%
TcHisRS: 1.916%
LiHisRS: 12.31%

compound: Cc1cc(CN2C[C@H]3CCC[C@@]3(COCc3csc(C)n3)C2)no1
TcHisRS: 1.149%
LiHisRS: 13.16%

compound: O=C(O)C(F)(F)F.O=C(O)C(F)(F)F.c1ccc(OC2COC3(CCN(CC4CC4)CC3)C2)nc1 (stereo unspecified)
T. brucei: -16.98%

compound: CCC(C(=O)NCC1CCN(c2cnn(C)c(=O)c2)CC1)n1cccn1 (stereo unspecified)
T. brucei: -36.91%
TcHisRS: -1.02%
LiHisRS: 14.52%

compound: [H][C@@]12CN(S(=O)(=O)c3ccccc3)C[C@@]1([H])N(CCOC)C(=O)CO2
T. brucei: -30.73%

compound: Cc1ccc(C(=O)N2CCC(c3noc(-c4cccnc4)n3)CC2)cn1
T. brucei: -9.515%
TcHisRS: 3.143%
LiHisRS: 6.711%

compound: N#CCCN(Cc1cccnc1)C(=O)c1cc(Cl)c[nH]1
T. brucei: -23.27%
TcHisRS: 5.319%
LiHisRS: 24.29%

compound: Cn1cccc1C(=O)N1CCCCC12CC(=O)N(c1cccnc1)C2.O=C(O)C(F)(F)F (stereo unspecified)
T. brucei: 11.26%

compound: O=C(O)C(F)(F)F.[H][C@]12C[C@@H](Cn3cncn3)N(C(C)C)[C@@]1([H])CCN(Cc1ccsc1)C2
T. brucei: -19.41%

compound: CC(C)c1nc(CN(C)Cc2ccc(O)c(Cl)c2)cs1
T. brucei: 7.337%
TcHisRS: 0%
LiHisRS: 15.58%

compound: NC(=O)C1CCN(C(=O)C2SCCc3sccc32)CC1 (stereo unspecified)
T. brucei: -30.9%
TcHisRS: 5.172%
LiHisRS: 4.464%

compound: CC(=O)N1CCc2nc(N(C)C)nc(NCCc3ccccc3)c2CC1
T. brucei: -33.3%
TcHisRS: 3.478%
LiHisRS: 5%

compound: CCc1ccc(C(=O)N2CCCC2c2c(C)nn(C)c2OC)o1 (stereo unspecified)
T. brucei: -16.82%
TcHisRS: 2.062%
LiHisRS: 4.839%

compound: Cn1cc(C(=O)NCc2cn3c(n2)CN(CC2CCOCC2)CC3)cn1.O=C(O)C(F)(F)F
T. brucei: -7.208%

compound: O=C(NCCN1CCC(c2cccs2)CC1)c1ccc(F)cc1Cl
T. brucei: -3.545%
TcHisRS: 4.523%
LiHisRS: 22.47%

compound: O=C(O)C(F)(F)F.O=C(O)C(F)(F)F.[H][C@@]12CCN(Cc3ccccn3)[C@]1([H])CC[C@H](COCC(=O)N(C)C)O2
T. brucei: 8.34%

compound: COCCN1C(=O)C[C@@H]2[C@H]1CCN2C(=O)c1ccc[nH]1
TcHisRS: -4.386%
LiHisRS: 1.613%

Some entries from above, unchanged:

* O=C(Cc1ccccn1)N1CCn2cc(Cn3cncn3)nc2C1 : T. brucei: -102.9%; TcHisRS: 7.65%; LiHisRS: 17.54%
* COc1cccc(-n2ccc3nc(N4CCCC4)ncc3c2=O)c1 : T. brucei: -41.16%; TcHisRS: 6.818%; LiHisRS: 5%
* COCCN1C(=O)C[C@@H]2[C@H]1CCN2C(=O)c1ccc[nH]1 : TcHisRS: -4.386%; LiHisRS: 1.613%